The list shows a part of the results. These are further read-outs of the screen, such as a control signal, another cell line or another target. No call is given for them. The list favours compounds with an active or inconclusive main result. Words in brackets tell the shape of the fitted curve; partial curves, single points and poor fits give uncertain potencies.
Test: qHTS Assay for Modulators of Lamin A Splicing
Settings: HeLa LMNA splicing GFP/RFP minigene ratio, 48 h
Method in brief: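 S3 HeLa stable clones carrying a lamin A-EGFP splicing minigene plus DsRed2 were seeded at 600 cells/well in Opti-MEM with 2% FBS, pin-dosed and incubated 48 h at 37°C. Acumen cytometry (488 nm) gave the GFP/RFP total-intensity ratio.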

[1] = measured here: RFP viability control channel
[2] = measured here: GFP splicing reporter channel

SMILES	AC50 [1]	AC50 [2]
CCC(=O)N(Cc1ccco1)c1nc(C(=O)Nc2ccc(Cl)cc2)c(C)s1	15.8 µM [rising, partial curve]	
Cn1ncc(C#N)c1/N=C/N(Cc1ccccc1)Cc1ccccc1	15.8 µM [rising, single point]	
COc1ccc(C(=O)CCC(=O)Nc2cc(C)ccc2C)cc1	0.01 µM [falling, full curve, poor fit]	
Cc1ccc(NS(=O)(=O)c2cccs2)cc1S(=O)(=O)N1CCCCCC1	0.0282 µM [falling, full curve, poor fit]	
COc1ccc(-c2nc3ccccc3s2)cc1NC(C)=O	0.158 µM [rising, full curve, poor fit]	
Cc1ccc(C(=O)NN2C(=O)/C(=C/c3cccn3C)SC2=S)cc1	20 µM [rising, single point]	12.6 µM [rising, single point]
O=C(CC1SCCNC1=O)Nc1ccc(Cl)c(Cl)c1 (stereo unspecified)	20 µM [rising, single point]	
Oc1ccc(C2C(c3ccccc3)=NN=C(c3ccccc3F)N2O)c(O)c1 (stereo unspecified)	10 µM [rising, partial curve]	7.94 µM [rising, partial curve]
NCc1cccc(-n2cccn2)c1	10 µM [falling, partial curve, poor fit]	
O=C(O)CCCCCCC1C(=O)NC(=O)N1CCC(O)C1CCCCC1 (stereo unspecified)	0.00631 µM [falling, full curve, poor fit]	0.00447 µM [falling, full curve, poor fit]
Brc1ccccc1-c1nnc(SCc2nc3ccccc3s2)o1	14.1 µM [rising, partial curve]	7.94 µM [rising, partial curve, poor fit]
COc1ccc(CN2CCN(S(=O)(=O)c3ccc(NC(C)=O)cc3)CC2)c(OC)c1OC		0.0398 µM [rising, full curve]
CCc1nc2ccccc2n1Cc1ccccc1F		0.126 µM [falling, full curve, poor fit]
Cc1ccc(-c2cc(C(F)F)nc(NCC3CCCO3)n2)cc1 (stereo unspecified)		31.6 µM [rising, single point]
OCCN1CCN(Cc2cc(Cl)c3cccnc3c2O)CC1	22.4 µM [rising, single point]	
COC(=O)N/N=C/c1cc(Cl)cc(Cl)c1OCc1ccc(F)cc1		5.01 µM [rising, single point]
CCOC(=O)c1cnc(SCc2cccc(C)c2)nc1N	0.158 µM [rising, full curve, poor fit]	
C/C(Cn1nnc([N+](=O)[O-])n1)=N\NC(=O)c1ccc(C)cc1	11.2 µM [rising, partial curve]	
Cc1ccc(NC(=O)CCn2nc([N+](=O)[O-])cc2C)nc1	0.112 µM [falling, full curve, poor fit]	

SMILES	AC50 [1]	AC50 [2]
CCc1cc2c(=O)n(Cc3ccco3)c(SCC(=O)N3CCCc4ccccc43)nc2s1	17.8 µM [rising, partial curve]	12.6 µM [rising, partial curve, poor fit]
CC(C)[C@H]1CC[C@@H](C)C(C(=O)c2ccccc2)C1=O (stereo partly specified)		3.55 µM [rising, partial curve, poor fit]
O=C(O)C1CN(CCCP(=O)(O)O)CCN1 (stereo unspecified)	0.00501 µM [falling, full curve, poor fit]	
Cc1oc(-c2ccc(Cl)cc2)nc1CN1CCCC(C(=O)NCc2ccco2)C1 (stereo unspecified)	20 µM [rising, partial curve]	17.8 µM [rising, partial curve]
COc1cccc(-c2cc3nc(-c4ccccc4)cc(N4CCCC(O)C4)n3n2)c1 (stereo unspecified)		0.158 µM [rising, full curve, poor fit]
Cc1nc(NCCc2ccccc2)c2oc3ccccc3c2n1	11.2 µM [rising, partial curve]	10 µM [rising, partial curve]
O=C(O)c1ccccc1NCCO		0.0891 µM [rising, full curve]
FC(F)Oc1ccc(NC(=S)NCc2ccccc2)cc1Cl	35.5 µM [rising, single point]	
CCCCc1nc(NCCO)c(C#N)c2c1CCCC2	0.0447 µM [rising, full curve]	0.0398 µM [rising, full curve, poor fit]
O=C(CNC(=O)C(c1ccccc1)c1ccccc1)N/N=C/c1ccc(O)c([N+](=O)[O-])c1	14.1 µM [rising, single point]	
CCOc1cccc(/C=N/NC(=O)c2cc(-c3cccn3C)n[nH]2)c1O	25.1 µM [falling, partial curve]	0.631 µM [falling, full curve]
CCOC(=O)c1cnc(SCC(=O)c2ccccc2)nc1N		12.6 µM [rising, partial curve, poor fit]
COc1ccc(/C=N/Nc2nc(-c3ccc(Cl)cc3)cc(C(F)(F)F)n2)cc1OC	28.2 µM [rising, single point]	
COC(=O)c1ccc(Cn2c(SCC(=O)Nc3ccc(F)cc3)nc3ccccc32)cc1	0.0224 µM [falling, full curve, poor fit]	
CCCCN(CC)Cc1ccc(CNS(=O)(=O)c2cc3c(cc2Cl)NC(=O)CO3)o1	0.316 µM [rising, full curve, poor fit]	0.0224 µM [rising, full curve]
O=c1cc(N2CCOCC2)oc2c(-c3ccccc3)cccc12		0.00355 µM [falling, full curve, poor fit]
CC(=O)N(C1CC(C)C(C#N)(C#N)C1(C#N)C#N)N(C)C (stereo unspecified)	14.1 µM [rising, single point]	
Fc1ccc(-n2ncc3c(N4CCN(Cc5ccccc5)CC4)ncnc32)cc1		8.91 µM [falling, partial curve, poor fit]
CC(C)N(Cc1ccccc1)C(=S)NCc1ccccc1		0.0282 µM [falling, full curve, poor fit]

SMILES	AC50 [1]	AC50 [2]
COc1ccccc1NS(=O)(=O)c1cc(NC(=O)c2ccc(Cl)nc2)ccc1Cl	3.55 µM [rising, full curve]	3.98 µM [rising, full curve, poor fit]
O=C(O)/C=C/C(=O)NNc1ccc([N+](=O)[O-])cc1		28.2 µM [rising, single point]
COc1cccc(CNC(=O)CSc2n[nH]c(-c3ccccc3Cl)n2)c1		11.2 µM [rising, partial curve, poor fit]
CC1CC(C)(C)NC(=S)N1CCCC(=O)Nc1ccccc1F (stereo unspecified)	0.00316 µM [falling, full curve, poor fit]	0.708 µM [falling, full curve, poor fit]
NC1=NC(=O)S/C1=C\c1ccc(O)cc1	11.2 µM [rising, partial curve, poor fit]	
C/C(Cn1nnc([N+](=O)[O-])n1)=N\NC(=O)c1cccc(Cl)c1	14.1 µM [rising, single point]	8.91 µM [rising, partial curve]
CNC1C(O)C(OC2C(NC(=O)C(O)CN)CC(N)C(OC3OC(CN)C(O)C(O)C3O)C2O)OCC1(C)O (stereo unspecified)		0.562 µM [rising, full curve]
CCn1c(SCC(=O)Nc2nc(-c3ccc(C)cc3)cs2)nnc1-c1ccccc1O	5.62 µM [rising, single point]	
Cc1nnnn1/C(=C\c1ccccc1)C(=O)OCC(=O)N1CC2(C)CC1CC(C)(C)C2 (stereo unspecified)	15.8 µM [falling, single point]	35.5 µM [falling, single point]
O=C(/C=C/c1ccc2c(c1)OCO2)NCCSCc1ccc(Cl)cc1Cl	35.5 µM [rising, single point]	15.8 µM [rising, single point]
O=C(N/N=C/c1cc(Br)cc(Br)c1O)c1cccc(N2CCCC2=O)c1	0.891 µM [rising, partial curve]	
CCOC(=O)c1ccc(NC(=S)N2CCSC2c2ccc(Cl)cc2)cc1 (stereo unspecified)		35.5 µM [falling, single point]
CCC(NC(=O)Nc1cccc(C)c1)c1c(-n2cccc2)sc2c1CCN(C)C2 (stereo unspecified)	39.8 µM [falling, partial curve]	
O=C(CCC1N=C2c3ccccc3N=C(SCC(=O)NCCc3ccccc3)N2C1=O)NCc1ccc(F)cc1 (stereo unspecified)		0.708 µM [falling, single point]
COC(=O)[C@@H]1[C@@H](C#N)C2(c3ccccc3-c3ccccc32)N(c2ccc(Cl)cc2)N1C#N	25.1 µM [falling, single point]	22.4 µM [falling, single point]
CCC(C)c1ccc(C2C3=C(Nc4nc(N)[nH]c(=O)c42)c2ccccc2C3=O)cc1 (stereo unspecified)	35.5 µM [falling, single point]	
CCCCCN(C(=O)NC(=O)Nc1ccc(C)cc1C)S(C)(=O)=O	3.16 µM [falling, partial curve, poor fit]	6.31 µM [falling, partial curve]
CC/C(=C\C(=O)c1ccncc1)Nc1ccc(O)cc1	25.1 µM [rising, single point]	17.8 µM [rising, partial curve]
CCCN(CCC)C(=O)Cn1c(=O)n(-c2ccc(Cl)c(Cl)c2)c(=O)c2c(C)c(C(=O)N(C)C)sc21	0.0112 µM [rising, full curve, poor fit]	0.0178 µM [rising, full curve, poor fit]

An excerpt of these results, bar-delimited.
SMILES | AC50 [1] | AC50 [2]
CCn1c(SCC(=O)Nc2nc(-c3ccc(C)cc3)cs2)nnc1-c1ccccc1O | 5.62 µM [rising, single point] | 
Cc1nnnn1/C(=C\c1ccccc1)C(=O)OCC(=O)N1CC2(C)CC1CC(C)(C)C2 (stereo unspecified) | 15.8 µM [falling, single point] | 35.5 µM [falling, single point]
O=C(/C=C/c1ccc2c(c1)OCO2)NCCSCc1ccc(Cl)cc1Cl | 35.5 µM [rising, single point] | 15.8 µM [rising, single point]
O=C(N/N=C/c1cc(Br)cc(Br)c1O)c1cccc(N2CCCC2=O)c1 | 0.891 µM [rising, partial curve] | 
CCOC(=O)c1ccc(NC(=S)N2CCSC2c2ccc(Cl)cc2)cc1 (stereo unspecified) |  | 35.5 µM [falling, single point]
